Construct, isoform or probe ends are uncertain for at least one entry. Weaker means in comparison with the reference protein, sequence or condition of that experiment. At least one verdict rests on a figure or table, not on a statement of the authors. Tags and fusion partners may be left off the protein sequences shown.

The target of the data set is T1, myoglobin (Mb) (UniProt P02144).
T1 sequence (looked up, limits assumed): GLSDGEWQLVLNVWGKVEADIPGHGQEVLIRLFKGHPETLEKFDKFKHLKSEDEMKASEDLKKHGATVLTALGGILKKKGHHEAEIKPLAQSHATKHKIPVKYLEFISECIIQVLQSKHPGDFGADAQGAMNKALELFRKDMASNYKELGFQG
Nature of the data set: dot blot. The note with it: dot blot: 10 mM sodium phosphate pH 7.0, 10 mM KCl, 0.05% Tween-20, 100 nM oligonucleotide, 25 C, 1 h (block 2% BSA), commercial protein, label: 3'-biotinylated oligonucleotide mixed in, folded or branched DNA.

For “TTGGGGTTATTTTGGGTGTGGTGGGTGGGGGTTTTTGGGCGGGTTGGGCTGGG [2R-01–PEA3-01]”, the binding result (relative to PEA3-01–2R-01) was “binds more weakly”.
As for “GGGCGGGTTGGGCTGGGTTTTTGGGGTTATTTTGGGTGTGGTGGGTGGGGGTT [PEA3-01–2R-01]”, for the setting “better binder than 2R-01–PEA3-01”, the binding result was “binds”.

The record behind these values is article PMC11578312, “Proximity‐Unlocked Luminescence by Sequential Enzymatic Reactions from Antibody and Antibody/Aptamer (PULSERAA): A Platform for Detection and Visualization of Virus‐Containing Spots”.
